Assay results published in US20200325233A1.
Where a chain is given by its changes, count along the chain named. These are yes or no findings as the source states them, for the method shown. Some entries that bind do so weakly or less than the wild type.

Chains of the proteins cited; added tags and fusions are not shown. Lines headed by an entry give the natural chain unless they say otherwise; changes in a name come on top.
UniProt Q96E93: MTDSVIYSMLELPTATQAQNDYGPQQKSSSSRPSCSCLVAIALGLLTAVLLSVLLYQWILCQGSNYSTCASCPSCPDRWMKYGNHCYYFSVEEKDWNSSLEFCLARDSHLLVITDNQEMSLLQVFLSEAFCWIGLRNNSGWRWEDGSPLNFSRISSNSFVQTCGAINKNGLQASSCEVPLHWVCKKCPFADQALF

Assays:
[1] = molecular target: human KLRG1 extracellular domain (ECD) (human) (UniProt Q96E93); assay: hybridoma screening (Example 2)
[2] = molecular target: human KLRG1 extracellular domain (ECD) (human) (UniProt Q96E93); assay: hybridoma screening for binding to human KLRG1 ECD
[3] = molecular target: T1, cyno KLRG1 extracellular domain (ECD) (cynomolgus); assay: hybridoma screening for binding to cyno KLRG1 ECD
T1 sequence (chain, biotinylated in the Octet assay (site not stated)): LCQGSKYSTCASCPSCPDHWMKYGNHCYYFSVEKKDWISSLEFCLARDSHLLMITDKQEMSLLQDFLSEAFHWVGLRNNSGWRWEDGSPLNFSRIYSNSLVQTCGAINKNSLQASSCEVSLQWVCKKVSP

peptide PLNFSRI [4] = molecular target: T2, peptide PLNFSRI; assay: peptide mapping
T2 sequence (peptide): PLNFSRI

peptide PLNFSRI [5] = molecular target: T2, peptide PLNFSRI; assay: peptide mapping (FIG. 1 legend)

B1: ABC_G1D01 (antibody, V domains shown)
VH: EVQLQQSGPELVKPGASVKMSCKASGYTFTDYNIHWVKQSHGKSLEWIGFFNPKNGVTINNQNFKGKAALTVNKSSSTAYMELRRLTSEDSAVYYCARDYYGTAWFAYWGQGTLVTVSA
VL: DIVMSQSPSSLAVSVGEKVTMSCRSSQSLLYSSNQKNYLAWYQQKPGQSPKLLIYWASTRESGVPDRFTGSGSGTDFTLTISSVKAEDLAVYYCQQFYSYPTFGGGTKLEIK
[1]
  binding: binds
[2]
  binding: binds
[3]
  binding: binds

B2: ABC_G1D03 (antibody, V domains shown)
VH: EVQLQQSGPELVKPGASVKMSCKTSGYTFTDHNMHWLKQSHGKGLEWFGFINPNTGVTRYNQKFNGKATLTINKSSSTAYLDLRSLTSEDSAVYYCTRDYYGSAWFAYWGQGTLVTVSA
VL: B1 VL with S9A, L11Q, A12T, R24K, S28T, N34D, F97Y, S99N
Peptide PLNFSRI [4]
  binding: binds
Peptide PLNFSRI [5]
  binding: binds
